From paper PMC8074078

Sequences of proteins named here, by UniProt entry; tags and fusion partners are left off. A change or cut given only in a name is not applied to a line headed by its entry. A line that says so, or that is headed by a name, gives the form on record, which may keep a tag or linker.
His6-PACRG (Parkin co-regulated gene) (Q96M98, form named): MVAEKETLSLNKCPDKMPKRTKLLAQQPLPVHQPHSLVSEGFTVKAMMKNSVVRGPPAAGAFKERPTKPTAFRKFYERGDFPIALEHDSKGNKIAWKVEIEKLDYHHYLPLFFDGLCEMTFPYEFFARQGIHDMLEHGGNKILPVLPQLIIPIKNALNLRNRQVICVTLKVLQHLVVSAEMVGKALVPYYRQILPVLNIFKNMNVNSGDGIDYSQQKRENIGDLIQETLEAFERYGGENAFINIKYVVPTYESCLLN

B1: SETMAR (protein, UniProt Q53H47 1-684)
chain: MFAEAAKTTRPCGMAEFKEKPEAPTEQLDVACGQENLPVGAWPPGAAPAPFQYTPDHVVGPGADIDPTQITFPGCICVKTPCLPGTCSCLRHGENYDDNSCLRDIGSGGKYAEPVFECNVLCRCSDHCRNRVVQKGLQFHFQVFKTHKKGWGLRTLEFIPKGRFVCEYAGEVLGFSEVQRRIHLQTKSDSNYIIAIREHVYNGQVMETFVDPTYIGNIGRFLNHSCEPNLLMIPVRIDSMVPKLALFAAKDIVPEEELSYDYSGRYLNLTVSEDKERLDHGKLRKPCYCGAKSCTAFLPFDSSLYCPVEKSNISCGNEKEPSMCGSAPSVFPSCKRLTLETMKMMLDKKQIRAIFLFEFKMGRKAAETTRNINNAFGPGTANERTVQWWFKKFCKGDESLEDEERSGRPSEVDNDQLRAIIEADPLTTTREVAEELNVNHSTVVRHLKQIGKVKKLDKWVPHELTENQKNRRFEVSSSLILRNHNEPFLDRIVTCDEKWILYDNRRRSAQWLDQEEAPKHFPKPILHPKKVMVTIWWSAAGLIHYSFLNPGETITSEKYAQEIDEMNQKLQRLQLALVNRKGPILLHDNARPHVAQPTLQKLNELGYEVLPHPPYSPDLLPTNYHVFKHLNNFLQGKRFHNQQDAENAFQEFVESQSTDFYATGINQLISRWQKCVDCNGSYFD
B2: TMPO (protein, UniProt P42166 1-694)
chain: MPEFLEDPSVLTKDKLKSELVANNVTLPAGEQRKDVYVQLYLQHLTARNRPPLPAGTNSKGPPDFSSDEEREPTPVLGSGAAAAGRSRAAVGRKATKKTDKPRQEDKDDLDVTELTNEDLLDQLVKYGVNPGPIVGTTRKLYEKKLLKLREQGTESRSSTPLPTISSSAENTRQNGSNDSDRYSDNEEGKKKEHKKVKSTRDIVPFSELGTTPSGGGFFQGISFPEISTRPPLGSTELQAAKKVHTSKGDLPREPLVATNLPGRGQLQKLASERNLFISCKSSHDRCLEKSSSSSSQPEHSAMLVSTAASPSLIKETTTGYYKDIVENICGREKSGIQPLCPERSHISDQSPLSSKRKALEESESSQLISPPLAQAIRDYVNSLLVQGGVGSLPGTSNSMPPLDVENIQKRIDQSKFQETEFLSPPRKVPRLSEKSVEERDSGSFVAFQNIPGSELMSSFAKTVVSHSLTTLGLEVAKQSQHDKIDASELSFPFHESILKVIEEEWQQVDRQLPSLACKYPVSSREATQILSVPKVDDEILGFISEATPLGGIQAASTESCNQQLDLALCRAYEAAASALQIATHTAFVAKAMQADISQAAQILSSDPSRTHQALGILSKTYDAASYICEAAFDEVKMAAHTMGNATVGRRYLWLKDCKINLASKNKLASTPFKGGTLFGGEVCKVIKKRGNKH
B3: ALDH18A1 (protein, UniProt P54886 1-795)
chain: MLSQVYRCGFQPFNQHLLPWVKCTTVFRSHCIQPSVIRHVRSWSNIPFITVPLSRTHGKSFAHRSELKHAKRIVVKLGSAVVTRGDECGLALGRLASIVEQVSVLQNQGREMMLVTSGAVAFGKQRLRHEILLSQSVRQALHSGQNQLKEMAIPVLEARACAAAGQSGLMALYEAMFTQYSICAAQILVTNLDFHDEQKRRNLNGTLHELLRMNIVPIVNTNDAVVPPAEPNSDLQGVNVISVKDNDSLAARLAVEMKTDLLIVLSDVEGLFDSPPGSDDAKLIDIFYPGDQQSVTFGTKSRVGMGGMEAKVKAALWALQGGTSVVIANGTHPKVSGHVITDIVEGKKVGTFFSEVKPAGPTVEQQGEMARSGGRMLATLEPEQRAEIIHHLADLLTDQRDEILLANKKDLEEAEGRLAAPLLKRLSLSTSKLNSLAIGLRQIAASSQDSVGRVLRRTRIAKNLELEQVTVPIGVLLVIFESRPDCLPQVAALAIASGNGLLLKGGKEAAHSNRILHLLTQEALSIHGVKEAVQLVNTREEVEDLCRLDKMIDLIIPRGSSQLVRDIQKAAKGIPVMGHSEGICHMYVDSEASVDKVTRLVRDSKCEYPAACNALETLLIHRDLLRTPLFDQIIDMLRVEQVKIHAGPKFASYLTFSPSEVKSLRTEYGDLELCIEVVDNVQDAIDHIHKYGSSHTDVIVTEDENTAEFFLQHVDSACVFWNASTRFSDGYRFGLGAEVGISTSRIHARGPVGLEGLLTTKWLLRGKDHVVSDFSEHGSLKYLHENLPIPQRNTN
B4: TRIM11 (protein, UniProt Q96F44 1-468)
chain: MAAPDLSTNLQEEATCAICLDYFTDPVMTDCGHNFCRECIRRCWGQPEGPYACPECRELSPQRNLRPNRPLAKMAEMARRLHPPSPVPQGVCPAHREPLAAFCGDELRLLCAACERSGEHWAHRVRPLQDAAEDLKAKLEKSLEHLRKQMQDALLFQAQADETCVLWQKMVESQRQNVLGEFERLRRLLAEEEQQLLQRLEEEELEVLPRLREGAAHLGQQSAHLAELIAELEGRCQLPALGLLQDIKDALRRVQDVKLQPPEVVPMELRTVCRVPGLVETLRRFRGDVTLDPDTANPELILSEDRRSVQRGDLRQALPDSPERFDPGPCVLGQERFTSGRHYWEVEVGDRTSWALGVCRENVNRKEKGELSAGNGFWILVFLGSYYNSSERALAPLRDPPRRVGIFLDYEAGHLSFYSATDGSLLFIFPEIPFSGTLRPLFSPLSSSPTPMTICRPKGGSGDTLAPQ

Experiments:
His6-GST-PACRG (human) = His6-GST-PACRG (human) (UniProt Q96M98); assay: affinity purification with mass spectrometry; purified His6-tagged bait coupled to Ni2+-charged resin (2 h, 4 °C), incubated 2 h with supernatant of HEK293T cell lysate, washed three times with 5 mM imidazole; bound proteins identified by LC-MS/MS; controls: Ni2+-charged resin alone (for His6-PACRG) and His6-GST (for His6-GST-PACRG); only proteins found with both baits accepted; only the target purified
[1] = target: His6-PACRG (Parkin co-regulated gene) (human) (UniProt Q96M98); assay: as above

Row | Binder | binding (His6-GST-PACRG (human)) | binding [1]
1 | B1 | binds | binds
2 | B2 | binds | binds
3 | B3 | binds | binds
4 | B4 | binds | binds

No constants are given. Whether binding was seen depends on the method and setting. In cells and extracts the contact can be indirect. These calls come from enrichment with a bait or labelling near it, and not all partners need be listed.
